# Laboratory results published in patent US12048691B2 (SPERO THERAPEUTICS, INC., priority 2020, dated 2024).
# Counter-ions that a name gives are not always drawn.
# Experiment: clinical
# Settings: human, in vivo, po
smiles,measurement,value
"C[C@@H](O)[C@H]1C(=O)N2C(C(=O)OCOC(=O)C(C)(C)C)=C(SC3CN(C4=NCCS4)C3)[C@H](C)[C@H]12 [Tebipenem pivoxil HBr, tebipenem pivoxil hydrobromide]",Tmax,1 h
